# Measurements published in the supplement of paper PMC8728848.
# This is one part of the list.
# B1: HA-00510 (Pseudomonas aeruginosa), Q02V39_PSEAB (protein)
# chain: GVPIVNIATPNGAGLSNNHFRDYNVGANGLILNNATGKTQGTQLGGIILGNPNLKGQAAQVILNQVTGGNRSTLAGYTEVAGQSARVIVANPHGITCQGCGFINTPRATLTTGKPIMDGQRLERFQVDGGDIVVEGAELNVGNLEQFDLITRSAKLNAKLYAKNLNIVTGRNDVQADSLQATPRAADGSEKPQLAIDSSALGGMYAGAIRLVGTEQGVGVKLAGDMAASGGDIRIDASGKLSLAQASSQGDLKIAAQAVELNGKTYAGGSAEIRSAEELVNRQS
# Assays:
# Assay in all cases: glycan array binding signal (z-score within array); higher = stronger binding
# Conditions in all cases: glycan notation: IUPAC condensed, linker removed
# Fuc(a1-2)Gal = target: Fuc(a1-2)Gal
# In short: (§1)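 Glycan array binding is given as a within-array Z-score, which can be read as non-binding when negative. The arrays, 3228 of them, came from the Consortium for Functional Glycomics database and were retained only where the protein sequence was available. Z-scores were averaged across arrays of the same protein sequence at different concentrations or buffers and across linkers.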
# Fuc(a1-2)Gal(b1-3)GalNAc = target: Fuc(a1-2)Gal(b1-3)GalNAc
# In short: as §1
# [1] = target: Fuc(a1-2)Gal(b1-3)GalNAc(a1-3)[Fuc(a1-2)]Gal(b1-4)Glc
# In short: as §1
# [2] = target: Fuc(a1-2)Gal(b1-3)GalNAc(a1-3)[Fuc(a1-2)]Gal(b1-4)GlcNAc
# In short: as §1
# [3] = target: Fuc(a1-2)Gal(b1-3)GalNAc(b1-3)Gal
# In short: as §1
# [4] = target: Fuc(a1-2)Gal(b1-3)GalNAc(b1-3)Gal(a1-4)Gal(b1-4)Glc
# In short: as §1
# [5] = target: Fuc(a1-2)Gal(b1-3)GalNAc(b1-4)[Neu5Ac(a2-3)]Gal(b1-4)Glc
# In short: as §1
# Fuc(a1-2)Gal(b1-3)GlcNAc = target: Fuc(a1-2)Gal(b1-3)GlcNAc
# In short: as §1
# [6] = target: Fuc(a1-2)Gal(b1-3)GlcNAc(b1-2)Man(a1-3)[Fuc(a1-2)Gal(b1-3)GlcNAc(b1-2)Man(a1-6)]Man(b1-4)GlcNAc(b1-4)GlcNAc
# In short: as §1
# [7] = target: Fuc(a1-2)Gal(b1-3)GlcNAc(b1-2)Man(a1-3)[Fuc(a1-2)Gal(b1-3)GlcNAc(b1-2)Man(a1-6)]Man(b1-4)GlcNAc(b1-4)[Fuc(a1-6)]GlcNAc
# In short: as §1
# [8] = target: Fuc(a1-2)Gal(b1-3)GlcNAc(b1-3)Gal(b1-4)Glc
# In short: as §1
# [9] = target: Fuc(a1-2)Gal(b1-3)GlcNAc(b1-3)GalNAc
# In short: as §1
# [10] = target: Fuc(a1-2)Gal(b1-3)GlcNAc(b1-3)[Fuc(a1-2)Gal(b1-3)GlcNAc(b1-6)]GalNAc
# In short: as §1
# [11] = target: Fuc(a1-2)Gal(b1-3)GlcNAc(b1-3)[Gal(b1-4)GlcNAc(b1-6)]Gal(b1-4)Glc
# In short: as §1
# [12] = target: Fuc(a1-2)Gal(b1-3)GlcNAc(b1-3)[Neu5Ac(a2-6)Gal(b1-4)GlcNAc(b1-6)]Gal(b1-4)Glc
# In short: as §1
# [13] = target: Fuc(a1-2)Gal(b1-3)GlcNAc6S
# In short: as §1
# [14] = target: Fuc(a1-2)Gal(b1-3)[Fuc(a1-4)]GlcNAc
# In short: as §1
# [15] = target: Fuc(a1-2)Gal(b1-3)[Fuc(a1-4)]GlcNAc(b1-2)Man(a1-3)[Fuc(a1-2)Gal(b1-3)[Fuc(a1-4)]GlcNAc(b1-2)Man(a1-3)]Man(b1-4)GlcNAc(b1-4)GlcNAc
# In short: as §1
# [16] = target: Fuc(a1-2)Gal(b1-3)[Fuc(a1-4)]GlcNAc(b1-2)Man(a1-3)[Fuc(a1-2)Gal(b1-3)[Fuc(a1-4)]GlcNAc(b1-2)Man(a1-6)]Man(b1-4)GlcNAc(b1-4)[Fuc(a1-6)]GlcNAc(b1-4)[Fuc(a1-6)]GlcNAc
# In short: as §1
# [17] = target: Fuc(a1-2)Gal(b1-3)[Fuc(a1-4)]GlcNAc(b1-3)[Fuc(a1-3)[Gal(b1-4)]GlcNAc(b1-6)]Gal(b1-4)Glc
# In short: as §1
# [18] = target: Fuc(a1-2)Gal(b1-3)[Fuc(a1-4)]GlcNAc(b1-3)[Gal(b1-4)GlcNAc(b1-6)]Gal(b1-4)Glc
# In short: as §1
# [19] = target: Fuc(a1-2)Gal(b1-4)Fuc(a1-3)]GlcNAc(b1-2)Man(a1-3)[Fuc(a1-2)Gal(b1-4)[Fuc(a1-3)]GlcNAc(b1-2)Man(a1-6)]Man(b1-4)GlcNAc(b1-4)GlcNAc
# In short: as §1
# Fuc(a1-2)Gal(b1-4)Glc = target: Fuc(a1-2)Gal(b1-4)Glc
# In short: as §1
# Fuc(a1-2)Gal(b1-4)Glc6S = target: Fuc(a1-2)Gal(b1-4)Glc6S
# In short: as §1
# Fuc(a1-2)Gal(b1-4)GlcNAc = target: Fuc(a1-2)Gal(b1-4)GlcNAc
# In short: as §1
# [20] = target: Fuc(a1-2)Gal(b1-4)GlcNAc(b1-2)Man
# In short: as §1
# [21] = target: Fuc(a1-2)Gal(b1-4)GlcNAc(b1-2)Man(a1-3)[Fuc(a1-2)Gal(b1-4)GlcNAc(b1-2)Man(a1-6)]Man(b1-4)GlcNAc(b1-4)GlcNAc
# In short: as §1
# [22] = target: Fuc(a1-2)Gal(b1-4)GlcNAc(b1-2)Man(a1-3)[Fuc(a1-2)Gal(b1-4)GlcNAc(b1-2)Man(a1-6)]Man(b1-4)GlcNAc(b1-4)[Fuc(a1-6)]GlcNAc
# In short: as §1
# [23] = target: Fuc(a1-2)Gal(b1-4)GlcNAc(b1-2)[Fuc(a1-2)Gal(b1-4)GlcNAc(b1-4)]Man(a1-3)[Fuc(a1-2)Gal(b1-4)GlcNAc(b1-2)Man(a1-6)]Man(b1-4)GlcNAc(b1-4)GlcNAc
# In short: as §1
# [24] = target: Fuc(a1-2)Gal(b1-4)GlcNAc(b1-3)Gal(b1-4)GlcNAc
# In short: as §1
binder,measurement,setting,value
B1,glycan array binding signal (z-score),Fuc(a1-2)Gal,1.4
same,glycan array binding signal (z-score),Fuc(a1-2)Gal(b1-3)GalNAc,-0.466
same,glycan array binding signal (z-score),[1],-0.384
same,glycan array binding signal (z-score),[2],-0.148
same,glycan array binding signal (z-score),[3],-0.766
same,glycan array binding signal (z-score),[4],0.441
same,glycan array binding signal (z-score),[5],0.186
same,glycan array binding signal (z-score),Fuc(a1-2)Gal(b1-3)GlcNAc,0
same,glycan array binding signal (z-score),[6],0.653
same,glycan array binding signal (z-score),[7],0.044
same,glycan array binding signal (z-score),[8],0.261
same,glycan array binding signal (z-score),[9],-0.39
same,glycan array binding signal (z-score),[10],-0.245
same,glycan array binding signal (z-score),[11],-0.275
same,glycan array binding signal (z-score),[12],-0.6
same,glycan array binding signal (z-score),[13],-1.04
same,glycan array binding signal (z-score),[14],-0.543
same,glycan array binding signal (z-score),[15],0.207
same,glycan array binding signal (z-score),[16],0.081
same,glycan array binding signal (z-score),[17],0.61
same,glycan array binding signal (z-score),[18],-0.461
same,glycan array binding signal (z-score),[19],0.511
same,glycan array binding signal (z-score),Fuc(a1-2)Gal(b1-4)Glc,1.07
same,glycan array binding signal (z-score),Fuc(a1-2)Gal(b1-4)Glc6S,-0.055
same,glycan array binding signal (z-score),Fuc(a1-2)Gal(b1-4)GlcNAc,0.548
same,glycan array binding signal (z-score),[20],0.386
same,glycan array binding signal (z-score),[21],0.561
same,glycan array binding signal (z-score),[22],-0.666
same,glycan array binding signal (z-score),[23],1.8
same,glycan array binding signal (z-score),[24],0.244

# Exported as tab-separated lines: entries from further up
binder	measurement	setting	value
B1	glycan array binding signal (z-score)	[3]	-0.766
same	glycan array binding signal (z-score)	[20]	0.386
